Data as given in PubChem BioAssay AID504808 (Drosophila RNAi Screening Center, 2011)

- Test: 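Chromatin factors that keep E2F targets switched off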 (primary screen)
- System: Drosophila S2 cells
- Reagent: long dsRNA against Drosophila genes
- Detection: 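Dual luciferase plate measurements; E2F-specific signal taken as firefly over Renilla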
- Reading the numbers: E2F firefly: higher = more E2F reporter activity; Renilla normaliser: higher = more normaliser reporter signal
- Call rule: 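Called active if the normalised E2F reporter went up by over 50%; the cutoff is arbitrary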
The deposit covers about 21,000 reagents; below is an unselected part of those that have a named target and a result. Of all reagents, 18 (0.084%) are marked active. 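Raw counts without plate normalisation, one of two replicates; the ratio scores behind the calls were not deposited.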 No sequences are given here. Not stated in the record: the amount of reagent, the time to read-out.

Silencing of CG32795 [DRSC18609] gave: E2F firefly, rep 1 = 84814; Renilla normaliser, rep 1 = 5040; inactive.
Against CG32795 [DRSC18610] the deposit lists E2F firefly, rep 1 = 1.18e5; Renilla normaliser, rep 1 = 5745; inactive.
For CG11999 [DRSC12185], the values are E2F firefly, rep 1 = 1.14e5; Renilla normaliser, rep 1 = 6600; inactive.
Silencing of CG3598 [DRSC18471] came out at: E2F firefly, rep 1 = 1.17e5; Renilla normaliser, rep 1 = 7147; inactive.
For CG4546 [DRSC15593] the deposit lists E2F firefly, rep 1 = 1.05e5; Renilla normaliser, rep 1 = 5014; inactive.
Silencing of PSMG1 [DRSC12297] resulted in: E2F firefly, rep 1 = 70276; Renilla normaliser, rep 1 = 4080; inactive.
CG12784 [DRSC14539] showed E2F firefly, rep 1 = 1.19e5; Renilla normaliser, rep 1 = 7292; inactive.
Against Cht9 [DRSC04079] the deposit lists E2F firefly, rep 1 = 74864; Renilla normaliser, rep 1 = 3125; inactive.
For Brd8 [DRSC14866] the deposit lists E2F firefly, rep 1 = 2758; Renilla normaliser, rep 1 = 1140; active.
Depletion of Tsp [DRSC02144] resulted in: E2F firefly, rep 1 = 1.05e5; Renilla normaliser, rep 1 = 3890; inactive.
With knock-down of Tsp [DRSC02145], the record shows E2F firefly, rep 1 = 1.46e5; Renilla normaliser, rep 1 = 5103; inactive.
CG31792 [DRSC02604] scored E2F firefly, rep 1 = 1.04e5; Renilla normaliser, rep 1 = 4893; inactive.
For CG13901 [DRSC08371] the deposit lists E2F firefly, rep 1 = 92313; Renilla normaliser, rep 1 = 3699; inactive.
After knock-down of CG7560 [DRSC10879], the screen gave E2F firefly, rep 1 = 1.05e5; Renilla normaliser, rep 1 = 5421; inactive.
Against CG3984 [DRSC15530] the deposit lists E2F firefly, rep 1 = 1.01e5; Renilla normaliser, rep 1 = 6102; inactive.
frj [DRSC03250] showed E2F firefly, rep 1 = 71027; Renilla normaliser, rep 1 = 3430; inactive.
Against kay [DRSC13962], the values are E2F firefly, rep 1 = 74338; Renilla normaliser, rep 1 = 2311; inactive.
Against kay [DRSC15048] the deposit lists E2F firefly, rep 1 = 77322; Renilla normaliser, rep 1 = 3699; inactive.
After knock-down of kay [DRSC16977], the screen gave E2F firefly, rep 1 = 2242; Renilla normaliser, rep 1 = 864; inactive.
Silencing of wupA [DRSC20385] gave: E2F firefly, rep 1 = 2.37e5; Renilla normaliser, rep 1 = 7824; inactive.
CG12910 [DRSC06225] showed E2F firefly, rep 1 = 3119; Renilla normaliser, rep 1 = 228; inactive.
CG12519 [DRSC10311] showed E2F firefly, rep 1 = 1.47e5; Renilla normaliser, rep 1 = 6131; inactive.
CG8854 [DRSC07288] scored E2F firefly, rep 1 = 2743; Renilla normaliser, rep 1 = 214; inactive.
CG10587 [DRSC11627] scored E2F firefly, rep 1 = 1.45e5; Renilla normaliser, rep 1 = 7031; inactive.
For CG8079 [DRSC07070], the values are E2F firefly, rep 1 = 83143; Renilla normaliser, rep 1 = 3737; inactive.
Knock-down of CG8079 [DRSC07071] resulted in: E2F firefly, rep 1 = 1.06e5; Renilla normaliser, rep 1 = 3754; inactive.
After knock-down of Liprin-gamma [DRSC04093], the record shows E2F firefly, rep 1 = 51549; Renilla normaliser, rep 1 = 3277; inactive.
Against CG10182 [DRSC14202], the values are E2F firefly, rep 1 = 98091; Renilla normaliser, rep 1 = 5654; inactive.

Entries above whose gene name starts with K or k (3):
kay [DRSC13962] | E2F firefly, rep 1 = 74338; Renilla normaliser, rep 1 = 2311; activity call = inactive
kay [DRSC15048] | E2F firefly, rep 1 = 77322; Renilla normaliser, rep 1 = 3699; activity call = inactive
kay [DRSC16977] | E2F firefly, rep 1 = 2242; Renilla normaliser, rep 1 = 864; activity call = inactive
